{"source": "paper PMC3139631", "molecular_target": "T1, CosR (rCosR) (UniProt Q0PBF4)", "T1 sequence (looked up, limits assumed)": "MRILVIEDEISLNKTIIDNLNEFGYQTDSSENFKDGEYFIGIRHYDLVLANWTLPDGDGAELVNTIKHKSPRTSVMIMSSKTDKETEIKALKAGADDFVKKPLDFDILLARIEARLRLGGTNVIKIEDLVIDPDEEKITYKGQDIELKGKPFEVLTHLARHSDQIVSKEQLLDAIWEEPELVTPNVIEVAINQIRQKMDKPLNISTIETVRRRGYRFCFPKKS", "experiment": "DNase I footprinting", "details": "10 mM MgCl2, site BsodB; footprinting: same buffer + 10 mM MgCl2, 40 ul, 37 C 10 min; recombinant protein; label: 5'-32P on S9 strand; probe letters rebuilt from the primers and the genome", "note": "For at least one entry, the source does not settle the construct or the ends of the probe. Tags and fusion partners may be left off the protein sequences shown.", "data": [{"sequence": "GCTTGGAGTATTAGCTGCAAAAACATTAGCTGCGAAAGCACCTAGTAATGCTGAGATTAGTACAACTTTTTTCATATTTTCCTCCTTATGAATAATTTTTAGTTGCAAATTAATTGTAATTATTAAAAATCAACAAATAGATATTTTTTGTAAAAATATTTCAAAAAAATATAATTTTTTATATATATTTAAATTATTATTAAAATATATTATAAATGTATCTTATTTTATTTAGATTAAATAAATAGAAATTTTACCCACTAAGCTTTTAAGATATTTTTACTCTTTTTAATATTATTATGGTAATATTTTCAATATCAAACTAAAAATAAAGGAGAAATTATGTTTGAATTAAGAAAATTACCTTATGATACCAATGCTTTTGGTGATTTTTTGAGTGCTGAAACTTTTAGCTATCATCATGGAAAACATCACAATACTTATGTTACAAATCTAAATAATCTTATTAAAGATACTGAATTTGCAGGTAAAGATCT (double strand) [sodB promoter footprint probe]", "values": [{"measurement": "binding result", "value": "binds"}]}]}
